Results are given in words; binding and its absence hold for the method and conditions named. Binding can be weak; no strength is given.
Biological target: PfPP1 fused with the GAL4 DNA binding domain (PfPP1-pGBKT7) (Plasmodium falciparum) (UniProt Q8ILV1)
Experiment: two-hybrid; full-length PfPP1c fused to the GAL4 DNA binding domain (pGBKT7, Y187) as bait; P. falciparum cDNA library fused to GAL4AD (pGAD-HA, Y2HGold) by mating; growth on TDO/A or QDO/A; five independent screens

Protein sequences, listed by entry. Tags and fused reporters are not part of them.
UniProt Q8ILV1: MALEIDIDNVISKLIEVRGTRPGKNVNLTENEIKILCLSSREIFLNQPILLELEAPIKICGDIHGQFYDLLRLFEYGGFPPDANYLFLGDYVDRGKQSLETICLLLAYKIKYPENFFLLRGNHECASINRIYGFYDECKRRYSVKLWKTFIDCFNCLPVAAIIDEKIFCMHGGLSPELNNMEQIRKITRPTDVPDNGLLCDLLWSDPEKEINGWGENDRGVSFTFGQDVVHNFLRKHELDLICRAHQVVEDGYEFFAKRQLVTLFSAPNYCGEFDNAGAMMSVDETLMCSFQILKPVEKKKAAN

“PF3D7_1303800 portion 9165–9271 (from UniProt Q8IES7) (domain or fragment)” was tested, and the binding was “binds”.

In the case of “PF3D7_1303800 portion 4987–5278 (from UniProt Q8IES7) (domain or fragment)”, the binding is reported as “binds”.

In the case of “PF3D7_0419900 portion 4414–4679 (from UniProt B9ZSJ6) (domain or fragment)”, the binding is reported as “binds”.

In the case of “PF3D7_1303800 portion 6176–6407 (from UniProt Q8IES7) (domain or fragment)”, the binding is reported as “binds”.

For “PF3D7_0419900 portion 1857–1998 (from UniProt B9ZSJ6) (domain or fragment)”, the binding was “binds”.
